From article PMC11001723
No constants are given. Whether binding was seen depends on the method and setting. In cells and extracts the contact can be indirect. Some entries that bind do so weakly or less than the wild type. Where a sequence is shown, tags or fusion partners need not be part of it.

Amino acid sequences for entries named in this document (tags omitted).
UniProt P28741: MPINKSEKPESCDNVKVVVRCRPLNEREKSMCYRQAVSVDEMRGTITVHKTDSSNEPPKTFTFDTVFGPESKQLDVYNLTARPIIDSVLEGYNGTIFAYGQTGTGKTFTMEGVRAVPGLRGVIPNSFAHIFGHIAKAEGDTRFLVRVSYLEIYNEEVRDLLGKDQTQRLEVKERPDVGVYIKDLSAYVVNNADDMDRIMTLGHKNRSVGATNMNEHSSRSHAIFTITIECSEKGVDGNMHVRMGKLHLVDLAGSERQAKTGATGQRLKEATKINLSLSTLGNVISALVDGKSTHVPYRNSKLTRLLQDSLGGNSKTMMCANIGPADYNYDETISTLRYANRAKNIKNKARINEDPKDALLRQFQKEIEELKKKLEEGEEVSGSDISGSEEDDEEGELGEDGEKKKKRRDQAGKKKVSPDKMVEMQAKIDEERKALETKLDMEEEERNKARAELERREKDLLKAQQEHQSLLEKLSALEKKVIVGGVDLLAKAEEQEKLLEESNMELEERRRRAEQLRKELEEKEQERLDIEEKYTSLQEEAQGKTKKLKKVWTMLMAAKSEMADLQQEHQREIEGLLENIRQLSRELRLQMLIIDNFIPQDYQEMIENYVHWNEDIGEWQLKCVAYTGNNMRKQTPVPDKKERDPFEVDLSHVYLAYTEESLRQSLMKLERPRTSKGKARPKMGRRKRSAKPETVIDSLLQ

B1: histone deacetylase 6 (protein, UniProt Q9Z2V5 1-1149)
chain: MTSTGQDSSTRQRKSRHNPQSPLQESSATLKRGGKKCAVPHSSPNLAEVKKKGKMKKLSQPAEEDLVVGLQGLDLNPETRVPVGTGLVFDEQLNDFHCLWDDSFPESPERLHAIREQLILEGLLGRCVSFQARFAEKEELMLVHSLEYIDLMETTQYMNEGELRVLAETYDSVYLHPNSYSCACLATGSVLRLVDALMGAEIRNGMAVIRPPGHHAQHNLMDGYCMFNHLAVAARYAQKKHRIQRVLIVDWDVHHGQGTQFIFDQDPSVLYFSIHRYEHGRFWPHLKASNWSTIGFGQGQGYTINVPWNQTGMRDADYIAAFLHILLPVASEFQPQLVLVAAGFDALHGDPKGEMAATPAGFAHLTHLLMGLAGGKLILSLEGGYNLRALAKGVSASLHTLLGDPCPMLESCVVPCASAQTSIYCTLEALEPFWEVLERSVETQEEDEVEEAVLEEEEEEGGWEATALPMDTWPLLQNRTGLVYDEKMMSHCNLWDNHHPETPQRILRIMCHLEEVGLAARCLILPARPALDSELLTCHSAEYVEHLRTTEKMKTRDLHREGANFDSIYICPSTFACAKLATGAACRLVEAVLSGEVLNGIAVVRPPGHHAEPNAACGFCFFNSVAVAARHAQIIAGRALRILIVDWDVHHGNGTQHIFEDDPSVLYVSLHRYDRGTFFPMGDEGASSQVGRDAGIGFTVNVPWNGPRMGDADYLAAWHRLVLPIAYEFNPELVLISAGFDAAQGDPLGGCQVTPEGYAHLTHLLMGLAGGRIILILEGGYNLASISESMAACTHSLLGDPPPQLTLLRPPQSGALVSISEVIQVHRKYWRSLRLMKMEDKEECSSSRLVIKKLPPTASPVSAKEMTTPKGKVPEESVRKTIAALPGKESTLGQAKSKMAKAVLAQGQSSEQAAKGTTLDLATSKETVGGATTDLWASAAAPENFPNQTTSVEALGETEPTPPASHTNKQTTGASPLQGVTAQQSLQLGVLSTLELSREAEEAHDSEEGLLGEAAGGQDMNSLMLTQGFGDFNTQDVFYAVTPLSWCPHLMAVCPIPAAGLDVSQPCKTCGTVQENWVCLTCYQVYCSRYVNAHMVCHHEASEHPLVLSCVDLSTWCYVCQAYVHHEDLQDVKNAAHQNKFGEDMPHSH
B2: KIFC1 (protein, UniProt Q9QWT9 1-674)
chain: MDVQAQRPPLLEVKRNVELKAALVKSSSRVPLSASRLKRGPDQMEDALEPAKKRTRVMGAVTKVDTSRPRGPLLSTVSQTQGHTAAQKGPKKTGPRGCSAIGTVLRSQKPVPAAPAQKPGTSTAPVVVGKRAGKRPAWDLKGQLCDLNEELKRYREKTQTLELENRGLREQLREVQEQATTLGTERNTLEGELASVRSRAEQDQQRLETLSARVLELEECLGTRERLLQELQGERLQLQEERSTLSTQLEEQERRFQATEAALSSSQEEVVCLRQKTEAQVTLLAEQGDRLYGLEMERRRLHNQLQELKGNIRVFCRVRPVLEGESTPSPGFLVFPPGPAGPSDPPTGLSLSRSDDRRSTLTGAPAPTVRHDFSFDRVFPPGSKQEEVFEEIAMLVQSALDGYPVCIFAYGQTGSGKTFTMEGGPRGDPQLEGLIPRAMRHLFSVAQEMSGQGWTYSFVASYVEIYNETVRDLLATGPRKGQGGECEIRRASPGSEELTVTNARYVPVSCEKEVEALLHLAHQNRAVAHTAQNKRSSRSHSVFQLQISGEHAARGLQCGAPLNLVDLAGSERLDPGLHLGPGERDRLRETQAINSSLSTLGLVIMALSNKESHVPYRNSKLTYLLQNSLGGSAKMLMFVNISPLEENVSESLNSLRFASKVNQCVIGTAQANKK

Target: Kinesin family member 3A (mouse (endogenous in ovary)) (UniProt P28741)
Assay: co-IP; rabbit anti-KIF3A antibody on Dynabeads Protein G, incubated with lysate of 6 mouse ovaries for 6 h at 4 °C, washed three times, eluted; partners detected by western blot

Binder | binding
B1 | binds
B2 | binds
